# Data reported in PubChem BioAssay AID540277 (National Center for Advancing Translational Sciences (NCATS), 2011).
# By UniProt entry, the sequences of proteins in these tests, tags left out.
# UniProt Q8NER1, whole entry: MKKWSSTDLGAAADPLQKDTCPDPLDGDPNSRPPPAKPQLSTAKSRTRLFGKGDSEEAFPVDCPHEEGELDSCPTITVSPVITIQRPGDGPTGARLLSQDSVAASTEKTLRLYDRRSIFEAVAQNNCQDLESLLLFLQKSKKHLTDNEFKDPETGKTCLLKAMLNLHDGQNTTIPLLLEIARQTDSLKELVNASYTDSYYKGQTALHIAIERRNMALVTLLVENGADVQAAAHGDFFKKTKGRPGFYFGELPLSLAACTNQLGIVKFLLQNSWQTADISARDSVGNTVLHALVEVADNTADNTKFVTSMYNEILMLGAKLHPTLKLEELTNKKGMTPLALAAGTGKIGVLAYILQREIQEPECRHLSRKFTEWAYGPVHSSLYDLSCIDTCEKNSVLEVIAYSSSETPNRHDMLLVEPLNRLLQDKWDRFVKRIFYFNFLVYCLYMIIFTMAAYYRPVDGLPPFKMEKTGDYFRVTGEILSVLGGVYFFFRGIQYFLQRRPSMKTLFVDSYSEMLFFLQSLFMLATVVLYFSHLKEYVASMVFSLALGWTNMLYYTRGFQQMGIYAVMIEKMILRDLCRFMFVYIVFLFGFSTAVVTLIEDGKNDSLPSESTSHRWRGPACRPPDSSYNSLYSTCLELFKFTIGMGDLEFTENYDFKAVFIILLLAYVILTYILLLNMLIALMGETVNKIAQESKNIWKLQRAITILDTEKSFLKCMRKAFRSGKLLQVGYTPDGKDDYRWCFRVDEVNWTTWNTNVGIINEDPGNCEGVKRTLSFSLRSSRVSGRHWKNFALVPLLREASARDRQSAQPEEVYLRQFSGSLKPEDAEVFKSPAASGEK
# Among all 320,000 compounds or so, about 55 (0.02%) were called active. All entries are inconclusive by the source's own rule. Clear calls are listed elsewhere. Rule as the data show it: active = potentiation above about 80%; inconclusive = between about 30% and that limit; inactive = weaker than that.
# Target: Transient receptor potential cation channel subfamily V member 1 (Homo sapiens) (UniProt Q8NER1)
# Experiment: HTS Assay for Compounds that Act as Potentiators of the Vanilloid Receptor 1; as to potentiation: 0% is about no effect
# Settings: TRPV1-expressing cells, Fluo-8 calcium influx, capsaicin EC20 potentiation; at 8.33 µM, hits give high values
# Text: The transient receptor potential ion channel, family V, number 1, (TRPV1) is one of the most important molecular transducers of painful stimuli and a potential target for analgesic drug development. Although recent clinical trials with orthosteric antagonists have not produced a successful drug because of a hyperthermia side effect and their tendency to block thermal noxious pain, this ion channel is undeniably well placed in the pain pathway, and the idea of blocking pain signals before they enter the CNS is an excellent concept and of proven efficacy when TRPV1 agonists are used. […]
# Upon TRPV1 activation in TRPV1 cells, the channel opens and extracellular cations flow through the channel into the cytosol. […] The amount of accumulated calcium is precisely quantified using the FDSS kinetic reader and the calcium dye. […] Plates will be loaded into the FDSS kinetic reader and a 1 sec / cycle for 10 second baseline signal will be measured. Compound library will then be added with a pintool at 23 nl and measured kinetically for 3 minutes. This portion of the read is considered the agonist portion of the screen. […] Signal will be measured kinetically for an additional 2 minutes. This portion of the read is considered the allosteric enhancer portion of the screen. The FDSS reader has a standard filter set capable of measuring calcium bound Fluo-8 (ex=480 and em=520 nm).
row,SMILES,potentiation
1,O=C(OC1CN2CCC1CC2)c1ccc([N+](=O)[O-])cc1 (configuration not stated),inconclusive: 38%
2,Cc1ccc(C(=O)NCC2(N3CCCCC3)CCCCC2)o1,inconclusive
